Source: PubChem BioAssay AID2417 (National Center for Advancing Translational Sciences (NCATS), 2010)
The whole screen tested about 140,000 compounds, of which about 4,300 (3.1%) were called active. Inconclusive results, whose numbers are uncertain, are shown with a selection of clear calls.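 How the source made its calls: active means readout at or below -70, meaning at least 70% loss of cells showing the perinucleolar compartment, a nuclear body marking cancer cells; inconclusive means readout between -30 and a set limit; inactive means the rest.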

Experiment: High Content Assay for Compounds that inhibit the Assembly of the Perinucleolar Compartment;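 further: plate controls were DMSO wells for no effect and camptothecin positive control wells for full effect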
Conditions: PC3M PTB-GFP, PNC prevalence imaging, 16 h; at 10 µM; hits give low values
Summary of the method: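 PC3M cells stably expressing PTB-GFP, 750–1000 cells/well, treated 16 h at 37 °C with compound (23 nl of library stock), in duplicate. After paraformaldehyde fixation and Hoechst stain, imaged at 20x; PNC prevalence scored by image analysis.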

| SMILES | activity change (PNC), negative = inhibition |
| --- | --- |
| COCCCn1c(SCc2cccc(C(F)(F)F)c2)nc2cc(OC)c(OC)cc2c1=N | active: -106% |
| COc1ccc(Nc2nc3ccccc3c(=O)s2)c(OC)c1 | inactive: 0.425% |
| CC(C)c1ccc(NC(=O)c2cc(S(=O)(=O)NCC3COc4ccccc4O3)ccc2F)cc1 (stereo not given) | active: -113% |
| COc1ccccc1NC(=O)C1=C(C)Nc2nc(CCCO)nn2C1c1ccc2c(c1)OCO2 (stereo not given) | inactive: -12.6% |
| Cc1ccccc1C(=O)Nc1ccccc1-n1cccc1 | inconclusive: -35.9% |
| O=S(=O)(NC1c2cccc3cccc(c23)C1N1CCN(CCO)CC1)c1ccccc1 (stereo not given) | inconclusive: -53.1% |
| COc1cc(/C=C2\SC(c3ccc(C)cc3)=NC2=O)cc(OC)c1OC | inactive: 12.3% |
| COC(=O)C1=C(C)N(Cc2ccc(C)cc2)C(=O)/C1=C\c1ccc(O)c(OC)c1 | inconclusive: -47.3% |
| COc1ccc(CNS(=O)(=O)c2ccc3c(c2)CCN3C(=O)C2CC2)cc1 | inconclusive: -41.4% |
| CCC(Sc1nc2n[nH]c(C)c2c(=N)n1-c1cccc(Cl)c1)C(=O)NCCOC (stereo not given) | inconclusive: -38.4% |
| Cc1ccc(OCC(=O)Nc2ccc(N(C)C)cc2)cc1 | inactive: 5.31% |
| Cc1cccc(NC(=O)CCN2C(=O)C3C4C=CC(C4)C3C2=O)c1 (stereo not given) | inactive: -28% |
| Cn1c(N2CCCCC2)nc2c1c(=O)[nH]c(=O)n2C | active: -106% |
| O=C(Cc1ccccc1)Nc1nc2ccccc2[nH]1 | inactive: 45.6% |
| O=C1C2C3C=CC(C3)C2C(=O)N1/N=C/c1ccc(-c2ccccc2[N+](=O)[O-])o1 (stereo not given) | inconclusive: -75.4% |
| COc1ccc2c(c1OC)C(=O)OC2CC(=O)c1ccc(O)cc1 (stereo not given) | inconclusive: -50.8% |
| COc1cccc(-n2nnc3c(=O)n(CC(=O)N4CCCCC4)cnc32)c1 | inactive: 3.91% |
| COc1cc2c(cc1NC(=O)COC(=O)CNS(=O)(=O)c1ccc(C)cc1)oc1ccccc12 | inactive: -27.7% |
| N#CC(c1ccc(Cl)cc1)(c1ncc(C(F)(F)F)cc1Cl)N1CCOCC1 (stereo not given) | inconclusive: -48.5% |
| N#CC1=C2SCN(Cc3ccccc3)CN2C(=O)CC1c1cccs1 (stereo not given) | inactive: -18.7% |
| COc1cc(OC)cc(C(=O)NC(=S)Nc2ccc(NC(=O)c3ccco3)cc2)c1 | inactive: 6.17% |
| Cc1ccc(Cn2nnc3c(=O)n(CC(=O)OCc4ccccc4)cnc32)cc1 | inconclusive: -31.6% |
| O=C(O)C1CC(=O)N(Cc2cccs2)C1 (stereo not given) | inconclusive: -30% |

| SMILES | activity change (PNC), negative = inhibition |
| --- | --- |
| Cc1ccc(C(=O)COC(=O)c2ccc3c(c2)C(=O)N(c2cccc4ncccc24)C3=O)cc1C | inactive: -16.5% |
| Cc1cc(OC(C)C)nc(-c2ccccc2O)n1 | inconclusive: -62% |
| CCc1cc2c(=O)[nH]c(Cc3ccc(OC)cc3)nc2s1 | inconclusive: -42.2% |
| CCCCn1c(O)c(N=NC(=O)c2ccncc2)c2cc(Br)ccc21 | inconclusive: -47.4% |
| O=C1C=C(NCc2ccco2)CC(c2ccc(Cl)cc2)C1 (stereo not given) | inconclusive: -57.1% |
| Brc1ccc(-c2nnc3c4ccccc4nc(N4CCOCC4)n23)cc1 | inactive: 25.6% |
| COc1ccc(N2C(N)=C(C#N)C(c3ccsc3)C3=C2CCCC3=O)c(OC)c1 (stereo not given) | active: -109% |
| COc1ccc(OC)c(Nc2cc(C)nc3nc(C)nn23)c1 | inactive: 7.15% |
| O=C(NCc1ccccc1)c1ccc(CN(c2ccccn2)S(=O)(=O)c2ccccc2)cc1 | inactive: 11.4% |
| COc1ccc(-c2c3c(nc4sc5c(Cl)nc(C)nc5c24)CCC3)cc1 | inconclusive: -40.2% |
| CCN(CC)S(=O)(=O)c1ccc(S(=O)(=O)N2CCN(C(=O)c3ccco3)CC2)cc1 | inconclusive: -32.8% |
| C/C(=N\NC(=O)C(c1ccccc1)c1ccccc1)c1ccccn1 | active: -80.6% |
| Brc1cc(Br)c2ncnc(N3CCCCC3)c2c1 | inactive: 10.5% |
| CCOc1ccc(CN(C(=O)c2ccco2)C2CCS(=O)(=O)C2)cc1 (stereo not given) | inactive: 34.7% |
| CCc1ccc(N2CC(C(=O)NCc3ccco3)CC2=O)cc1 (stereo not given) | inconclusive: -60.3% |
| COc1ccc(NC(=O)CSc2nc3c(c(=O)n2-c2ccc(C)cc2)SCC3)c(OC)c1 | inactive: 2.1% |
| COc1ccc2c(c1)C1=NN(/C(C)=C\C(C)=O)C(c3ccccc3)C1CC2 (stereo not given) | inconclusive: -46.3% |
| CC1CCN(c2nc3ccc(C(=O)N4CCN(Cc5ccccc5)CC4)cc3s2)CC1 | inconclusive: -39.7% |
| CCc1nc2nc(C)cc(Nc3cccc(C(F)(F)F)c3)n2n1 | inconclusive: -38.8% |
| Cc1ccnc(NS(=O)(=O)c2ccc(NC(=O)c3ccc(S(=O)(=O)N4CCOCC4)cc3)cc2)n1 | inactive: -19.3% |
| COCCOc1nc2c(c(=O)n(C)c(=O)n2C)n1CCc1ccccc1 | inconclusive: -47.6% |
| CCOc1ccc(C(=O)NCC(c2cccs2)N(C)C)cc1OCC (stereo not given) | inactive: 3.57% |

An excerpt from above in order of formula weight, low to high.

| SMILES | activity change (PNC), negative = inhibition |
| --- | --- |
| O=C(O)C1CC(=O)N(Cc2cccs2)C1 (stereo not given) | inconclusive: -30% |
| CC1CCN(c2nc3ccc(C(=O)N4CCN(Cc5ccccc5)CC4)cc3s2)CC1 | inconclusive: -39.7% |
| O=C(NCc1ccccc1)c1ccc(CN(c2ccccn2)S(=O)(=O)c2ccccc2)cc1 | inactive: 11.4% |
| CC(C)c1ccc(NC(=O)c2cc(S(=O)(=O)NCC3COc4ccccc4O3)ccc2F)cc1 (stereo not given) | active: -113% |
